From PMC8092294 come the findings set out here.

The chains behind the UniProt entries cited, without tags or fusion partners.
UniProt Q9U0K8: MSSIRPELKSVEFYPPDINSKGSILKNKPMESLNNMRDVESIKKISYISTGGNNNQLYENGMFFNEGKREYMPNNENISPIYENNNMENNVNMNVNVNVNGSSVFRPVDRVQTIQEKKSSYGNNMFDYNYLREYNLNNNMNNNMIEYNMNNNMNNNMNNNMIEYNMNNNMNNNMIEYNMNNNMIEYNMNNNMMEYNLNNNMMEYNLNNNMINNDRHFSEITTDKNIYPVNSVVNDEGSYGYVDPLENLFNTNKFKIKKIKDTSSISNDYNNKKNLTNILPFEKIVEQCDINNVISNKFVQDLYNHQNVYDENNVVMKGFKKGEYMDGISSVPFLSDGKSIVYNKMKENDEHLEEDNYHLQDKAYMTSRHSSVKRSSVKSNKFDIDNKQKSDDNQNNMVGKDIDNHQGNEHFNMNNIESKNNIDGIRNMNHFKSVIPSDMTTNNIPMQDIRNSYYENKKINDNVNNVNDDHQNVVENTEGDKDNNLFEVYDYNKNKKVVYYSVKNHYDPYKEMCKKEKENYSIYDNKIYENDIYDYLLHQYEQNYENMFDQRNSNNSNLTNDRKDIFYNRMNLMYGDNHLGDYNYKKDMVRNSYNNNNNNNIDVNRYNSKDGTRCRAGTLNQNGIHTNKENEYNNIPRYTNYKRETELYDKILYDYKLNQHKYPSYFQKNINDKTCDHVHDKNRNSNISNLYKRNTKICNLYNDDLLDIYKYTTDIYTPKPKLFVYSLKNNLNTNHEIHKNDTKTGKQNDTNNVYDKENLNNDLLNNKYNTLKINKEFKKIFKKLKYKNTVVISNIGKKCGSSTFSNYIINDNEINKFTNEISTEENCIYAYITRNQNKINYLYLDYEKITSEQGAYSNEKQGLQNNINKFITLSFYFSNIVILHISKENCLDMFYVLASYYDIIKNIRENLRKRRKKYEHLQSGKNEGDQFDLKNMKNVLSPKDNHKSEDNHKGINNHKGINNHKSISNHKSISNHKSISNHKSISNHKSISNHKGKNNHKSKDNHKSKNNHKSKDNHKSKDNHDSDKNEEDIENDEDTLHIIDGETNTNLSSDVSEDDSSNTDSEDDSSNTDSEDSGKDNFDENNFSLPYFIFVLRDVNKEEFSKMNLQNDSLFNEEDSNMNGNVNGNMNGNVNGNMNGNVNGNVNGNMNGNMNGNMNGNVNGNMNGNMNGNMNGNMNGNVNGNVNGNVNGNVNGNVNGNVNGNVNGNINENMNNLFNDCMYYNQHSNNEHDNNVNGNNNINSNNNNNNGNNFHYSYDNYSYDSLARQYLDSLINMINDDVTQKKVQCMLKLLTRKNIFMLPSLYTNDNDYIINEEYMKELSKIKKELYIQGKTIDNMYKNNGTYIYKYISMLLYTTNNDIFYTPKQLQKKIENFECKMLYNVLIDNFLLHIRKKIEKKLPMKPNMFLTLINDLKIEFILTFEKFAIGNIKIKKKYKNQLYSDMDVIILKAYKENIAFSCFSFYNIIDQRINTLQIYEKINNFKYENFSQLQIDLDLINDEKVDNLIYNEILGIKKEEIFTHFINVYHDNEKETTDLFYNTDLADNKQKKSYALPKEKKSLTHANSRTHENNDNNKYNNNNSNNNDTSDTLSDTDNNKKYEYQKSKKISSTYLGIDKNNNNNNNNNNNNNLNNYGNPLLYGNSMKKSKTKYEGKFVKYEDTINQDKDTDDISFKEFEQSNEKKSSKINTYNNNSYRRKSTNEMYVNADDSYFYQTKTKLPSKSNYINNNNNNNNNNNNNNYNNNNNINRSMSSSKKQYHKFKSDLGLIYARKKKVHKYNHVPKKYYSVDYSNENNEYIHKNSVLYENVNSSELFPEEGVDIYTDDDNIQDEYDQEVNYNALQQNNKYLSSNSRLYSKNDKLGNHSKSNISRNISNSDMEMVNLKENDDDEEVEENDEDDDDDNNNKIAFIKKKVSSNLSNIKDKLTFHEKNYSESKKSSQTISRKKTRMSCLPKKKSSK

For the assay, the target named is schizont egress antigen-1 with a C-terminal HA3 epitope tag (SEA1-HA3) (P. falciparum). Kind of assay: affinity purification with mass spectrometry; RIPA lysates of saponin-released early schizonts (~40 h) of DMSO- or RAP-treated (SEA1-null control) SEA1-HA:loxP parasites, loaded in triplicate on anti-HA magnetic beads, 4°C, 1 h; eluted in SDS sample buffer; in-gel tryptic digestion, Orbitrap, MaxQuant iBAQ.

These are yes or no findings as the source states them, for the method shown. Binding seen in cells or lysates may run through a third protein. Here binding means that the protein was enriched with, or labelled near, the bait; the list need not be complete.

On to “P. falciparum coordinator of nascent cell detachment (CINCH) (from UniProt Q9U0K8 1-1960)”, for which the binding entry is listed as “binds”.
